The nature of this data set: general procedure: Fmoc solid-phase peptide synthesis; 2-chlorotrityl chloride resin; HCTU (SPPS); DIC/DMAP (esterification); HBTU/HOBt (macrolactamization). Particulars: whole synthesis, TFA salt; for isolated yield: scale of the general procedure 0.09 mmol.

Here are results for two substances from US11046730B2 (The Regents of the University of California, priority 2016, dated 2021).

For the substance L-Thr8,Arg10-teixobactin, the isolated mass is recorded as 4.7 mg and the isolated yield was 3.6%.

Regarding D-allo-Ile11,Arg10-teixobactin, the isolated mass is listed as 13.2 mg and the isolated yield is on record as 10.0%.
